Source: patent publication US20080076129A1, “Method of Detecting an Increased Susceptibility to Breast Cancer” (priority 2000, published 2008)
At least one read-out could not be matched to a standard name with certainty.

Test system: CYP1B1
Test: Assay of CYP1B1 E2 hydroxylation activity
Format: biochemical, human
Conditions: for 4-OH-Estradiol kcat/Km: E2 4-hydroxylation; for 16a-OH-Esrradiol kcat/Km: E2 16α-hydroxylation
Experimental: Assay of CYP1B1 E2 Hydroxylation Activity. Purified CYP1B1 (200 pmol) was reconstituted with a 2-fold molar amount of recombinant rat NADPH-P450 reductase (400 pmol), purified as previously described, and 60 μg of L-α-dilauroyl-sn-glycero-3-phosphocholine in the presence of sodium cholate (0.005%, w/v) in 0.4 ml of 100 mM potassium phosphate buffer, pH 7.4, containing varying concentrations of E2 (2, 3, 6, 9, 12, 15, 20, 40, 60, 80, and 100 μM) and 1 mM ascorbate. An NADPH-generating system consisting of 5 mM glucose 6-phosphate and 0.5 U of glucose-6-phosphate dehydrogenase/ml was added and reactions initiated by adding NADP+ to a final concentration of 0.5 mM. Reactions proceeded for 10 min at 37° C. with gentle shaking and then were terminated by addition of 2 ml CH2Cl2.
Extraction and Gas Chromatography/Mass Spectrometry Analysis of E2 and Metabolites. A deuterated internal standard (100 μl of 8 mg/liter E2-2, 4, 16, 16-d4 in methanol; CDN Isotopes, Pointe-Claire, Quebec) was added and all steroids extracted into CH2Cl2 by vortex mixing for 30 s. 1.5 ml of the CH2Cl2 fraction was evaporated to dryness under air and volatile TMS derivatives prepared by heating the residue with 100 μl of 50% NO-bis(trimethylsilyl)trifluoroacetamide/1% trimethyl chlorosilane in acetonitrile at 56° C. for 30 min. The TMS derivatives of E2 and its metabolites were separated by gas chromatography (H-P 5890, Hewlett-Packard, Wilmington, Del.) on a 5% phenyl methyl silicone stationary phase fused silica capillary column (30 m×0.2 mm×0.5 μm film, HP5; Hewlett-Packard). Helium carrier gas was used at a flow of 1 ml/min. The injector was operated at 250° C., with 2 μl injected in the splitless mode, with a purge (60 ml/min helium) time of 0.6 min. The oven temperature was held at 189° C. for 0.5 min, then raised at 6° C./min to 250° C. where it was held for 17 min, then raised to 300° C. at 8° C./min to give a total run time of 35.42 min. […] The EI mass spectrometer (H-P 5970) was operated in the selected ion monitoring mode from 18 to 34 min. Ions monitored were TMS2-E2-d4 420, 288, 330; TMS2-E2 416, 285, 326; TMS3-2-OH-E2 504, 373; TMS3-4-OH-E2 504, 373, 325; TMS3-16α-OH-E2 345, 311, 504. The instrument was calibrated by simultaneous preparation of an 11-point calibration over the range […]/tube of each compound. […] Internal standard added prior to extraction compensated for deviation from 100% recovery.
Statistical Analysis. Kinetic parameters (Km and kcat) were determined by nonlinear regression analysis using the computer program GraphPad PRISM (San Diego, Calif.).

B1: Variant 4: recombinant CYP1B1 with 48Arg, 119Ala, 432Val, 453Ser (protein, UniProt Q16678 1-543, looked up, variant N453S)
Cytochrome P450 1B1: MGTSLSPNDPWPLNPLSIQQTTLLLLLSVLATVHVGQRLLRQRRRQLRSAPPGPFAWPLIGNAAAVGQAAHLSFARLARRYGDVFQIRLGSCPIVVLNGERAIHQALVQQGSAFADRPAFASFRVVSGGRSMAFGHYSEHWKVQRRAAHSMMRNFFTRQPRSRQVLEGHVLSEARELVALLVRGSADGAFLDPRPLTVVAVANVMSAVCFGCRYSHDDPEFRELLSHNEEFGRTVGAGSLVDVMPWLQYFPNPVRTVFREFEQLNRNFSNFILDKFLRHCESLRPGAAPRDMMDAFILSAEKKAAGDSHGGGARLDLENVPATITDIFGASQDTLSTALQWLLLLFTRYPDVQTRVQAELDQVVGRDRLPCMGDQPNLPYVLAFLYEAMRFSSFVPVTIPHATTANTSVLGYHIPKDTVVFVNQWSVNHDPLKWPNPENFDPARFLDKDGLISKDLTSRVMIFSVGKRRCIGEELSKMQLFLFISILAHQCDFRANPNEPAKMNFSYGLTIKPKSFKVNVTLRESMELLDSAVQNLQAKETCQ
B1 was tested, and the “4-OH-Estradiol kcat/Km” value was 4500 M⁻¹ s⁻¹ and the “16a-OH-Esrradiol kcat/Km” value was 233 ± 26.7 M⁻¹ s⁻¹.

B2: Variant 2: recombinant CYP1B1 with 48Arg, 119Ser, 432Val, 453Asn (protein, UniProt Q16678 1-543, looked up, variant A119S)
Cytochrome P450 1B1: MGTSLSPNDPWPLNPLSIQQTTLLLLLSVLATVHVGQRLLRQRRRQLRSAPPGPFAWPLIGNAAAVGQAAHLSFARLARRYGDVFQIRLGSCPIVVLNGERAIHQALVQQGSAFADRPSFASFRVVSGGRSMAFGHYSEHWKVQRRAAHSMMRNFFTRQPRSRQVLEGHVLSEARELVALLVRGSADGAFLDPRPLTVVAVANVMSAVCFGCRYSHDDPEFRELLSHNEEFGRTVGAGSLVDVMPWLQYFPNPVRTVFREFEQLNRNFSNFILDKFLRHCESLRPGAAPRDMMDAFILSAEKKAAGDSHGGGARLDLENVPATITDIFGASQDTLSTALQWLLLLFTRYPDVQTRVQAELDQVVGRDRLPCMGDQPNLPYVLAFLYEAMRFSSFVPVTIPHATTANTSVLGYHIPKDTVVFVNQWSVNHDPLKWPNPENFDPARFLDKDGLINKDLTSRVMIFSVGKRRCIGEELSKMQLFLFISILAHQCDFRANPNEPAKMNFSYGLTIKPKSFKVNVTLRESMELLDSAVQNLQAKETCQ
B2 was tested, and the “4-OH-Estradiol kcat/Km” value was 6170 M⁻¹ s⁻¹ and the “16a-OH-Esrradiol kcat/Km” value was 140 ± 21.7 M⁻¹ s⁻¹.

B3: Variant 1: recombinant CYP1B1 with 48Gly, 119Ala, 432Val, 453Asn (protein, UniProt Q16678 1-543, looked up, variant R48G)
Cytochrome P450 1B1: MGTSLSPNDPWPLNPLSIQQTTLLLLLSVLATVHVGQRLLRQRRRQLGSAPPGPFAWPLIGNAAAVGQAAHLSFARLARRYGDVFQIRLGSCPIVVLNGERAIHQALVQQGSAFADRPAFASFRVVSGGRSMAFGHYSEHWKVQRRAAHSMMRNFFTRQPRSRQVLEGHVLSEARELVALLVRGSADGAFLDPRPLTVVAVANVMSAVCFGCRYSHDDPEFRELLSHNEEFGRTVGAGSLVDVMPWLQYFPNPVRTVFREFEQLNRNFSNFILDKFLRHCESLRPGAAPRDMMDAFILSAEKKAAGDSHGGGARLDLENVPATITDIFGASQDTLSTALQWLLLLFTRYPDVQTRVQAELDQVVGRDRLPCMGDQPNLPYVLAFLYEAMRFSSFVPVTIPHATTANTSVLGYHIPKDTVVFVNQWSVNHDPLKWPNPENFDPARFLDKDGLINKDLTSRVMIFSVGKRRCIGEELSKMQLFLFISILAHQCDFRANPNEPAKMNFSYGLTIKPKSFKVNVTLRESMELLDSAVQNLQAKETCQ
B3 was tested, and the “16a-OH-Esrradiol kcat/Km” value was 143 ± 21.7 M⁻¹ s⁻¹.
